Some of the results follow.
Assays:
Test in all cases: log2 fold change, soluble protein after heating vs DMSO (PISA); higher = thermal stabilisation; K562 lysate, 10 uM; active = over 0.2 and 3.5 SD of the protein, either way, in both replicates (recomputed)
erlotinib = compound: C#Cc1cccc(Nc2ncnc3cc(OCCOC)c(OCCOC)cc23)c1 [erlotinib]
Procedure, shortened: (§1)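 The values are log-two fold changes in thermal stability compared with solvent controls and come from duplicates. They were obtained by TMTpro 16plex LC-MS/MS, with channel sums equalised, on the supernatant after 21,000xg for 90 min. That supernatant came from crude K562 extract at 1 mg/mL protein treated with 10 μM compound for 30 min, heated for 3 min across 48°C-58°C, pooled and brought to 0.5% NP-40 at 4°C.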

Amino acid sequences for entries named in this document (tags omitted). A change or cut given only in a name is not applied to a line headed by its entry.
UniProt Q96Q89: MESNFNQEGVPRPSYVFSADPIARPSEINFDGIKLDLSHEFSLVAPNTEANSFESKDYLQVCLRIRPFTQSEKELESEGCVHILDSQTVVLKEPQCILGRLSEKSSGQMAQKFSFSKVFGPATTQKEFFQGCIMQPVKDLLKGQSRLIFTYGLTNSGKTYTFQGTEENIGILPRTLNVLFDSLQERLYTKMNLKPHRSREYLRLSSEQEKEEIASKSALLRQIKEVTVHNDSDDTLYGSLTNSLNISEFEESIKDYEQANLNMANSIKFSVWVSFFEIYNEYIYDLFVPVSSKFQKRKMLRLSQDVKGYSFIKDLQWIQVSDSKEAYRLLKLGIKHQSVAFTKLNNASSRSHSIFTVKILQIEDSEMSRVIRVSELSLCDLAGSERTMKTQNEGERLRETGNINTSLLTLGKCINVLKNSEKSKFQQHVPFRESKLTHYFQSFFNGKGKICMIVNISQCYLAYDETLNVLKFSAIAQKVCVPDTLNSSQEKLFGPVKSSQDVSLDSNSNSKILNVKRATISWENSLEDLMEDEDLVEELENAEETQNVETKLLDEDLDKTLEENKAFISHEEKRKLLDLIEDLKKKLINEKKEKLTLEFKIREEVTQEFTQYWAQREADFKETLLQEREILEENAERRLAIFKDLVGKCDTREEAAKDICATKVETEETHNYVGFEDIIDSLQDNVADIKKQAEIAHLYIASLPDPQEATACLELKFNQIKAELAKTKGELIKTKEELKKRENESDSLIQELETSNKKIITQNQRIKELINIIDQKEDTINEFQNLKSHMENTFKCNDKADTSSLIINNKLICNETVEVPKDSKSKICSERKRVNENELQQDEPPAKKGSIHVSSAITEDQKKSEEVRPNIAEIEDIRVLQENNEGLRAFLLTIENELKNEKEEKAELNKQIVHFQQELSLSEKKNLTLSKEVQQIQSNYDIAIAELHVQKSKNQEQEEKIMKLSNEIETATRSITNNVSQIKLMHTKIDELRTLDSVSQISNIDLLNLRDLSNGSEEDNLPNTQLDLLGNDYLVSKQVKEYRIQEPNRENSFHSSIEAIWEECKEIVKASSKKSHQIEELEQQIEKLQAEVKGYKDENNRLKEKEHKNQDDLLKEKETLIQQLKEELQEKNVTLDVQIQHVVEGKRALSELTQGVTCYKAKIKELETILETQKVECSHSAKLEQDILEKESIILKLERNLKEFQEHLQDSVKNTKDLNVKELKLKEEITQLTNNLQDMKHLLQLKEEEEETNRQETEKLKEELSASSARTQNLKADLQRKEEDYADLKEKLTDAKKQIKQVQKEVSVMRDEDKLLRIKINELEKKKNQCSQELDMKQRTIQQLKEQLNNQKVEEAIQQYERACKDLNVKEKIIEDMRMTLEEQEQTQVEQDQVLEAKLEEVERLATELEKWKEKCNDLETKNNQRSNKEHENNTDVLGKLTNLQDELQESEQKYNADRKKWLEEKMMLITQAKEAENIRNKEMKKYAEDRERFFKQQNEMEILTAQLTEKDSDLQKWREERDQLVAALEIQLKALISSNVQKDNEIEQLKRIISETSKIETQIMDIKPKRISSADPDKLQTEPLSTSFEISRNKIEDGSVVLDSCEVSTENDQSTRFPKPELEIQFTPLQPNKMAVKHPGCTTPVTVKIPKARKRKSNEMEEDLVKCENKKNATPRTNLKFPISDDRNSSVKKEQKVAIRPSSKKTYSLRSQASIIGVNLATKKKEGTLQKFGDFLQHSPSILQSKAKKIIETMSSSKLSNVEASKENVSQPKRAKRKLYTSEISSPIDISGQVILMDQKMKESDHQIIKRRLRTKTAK
UniProt Q14667: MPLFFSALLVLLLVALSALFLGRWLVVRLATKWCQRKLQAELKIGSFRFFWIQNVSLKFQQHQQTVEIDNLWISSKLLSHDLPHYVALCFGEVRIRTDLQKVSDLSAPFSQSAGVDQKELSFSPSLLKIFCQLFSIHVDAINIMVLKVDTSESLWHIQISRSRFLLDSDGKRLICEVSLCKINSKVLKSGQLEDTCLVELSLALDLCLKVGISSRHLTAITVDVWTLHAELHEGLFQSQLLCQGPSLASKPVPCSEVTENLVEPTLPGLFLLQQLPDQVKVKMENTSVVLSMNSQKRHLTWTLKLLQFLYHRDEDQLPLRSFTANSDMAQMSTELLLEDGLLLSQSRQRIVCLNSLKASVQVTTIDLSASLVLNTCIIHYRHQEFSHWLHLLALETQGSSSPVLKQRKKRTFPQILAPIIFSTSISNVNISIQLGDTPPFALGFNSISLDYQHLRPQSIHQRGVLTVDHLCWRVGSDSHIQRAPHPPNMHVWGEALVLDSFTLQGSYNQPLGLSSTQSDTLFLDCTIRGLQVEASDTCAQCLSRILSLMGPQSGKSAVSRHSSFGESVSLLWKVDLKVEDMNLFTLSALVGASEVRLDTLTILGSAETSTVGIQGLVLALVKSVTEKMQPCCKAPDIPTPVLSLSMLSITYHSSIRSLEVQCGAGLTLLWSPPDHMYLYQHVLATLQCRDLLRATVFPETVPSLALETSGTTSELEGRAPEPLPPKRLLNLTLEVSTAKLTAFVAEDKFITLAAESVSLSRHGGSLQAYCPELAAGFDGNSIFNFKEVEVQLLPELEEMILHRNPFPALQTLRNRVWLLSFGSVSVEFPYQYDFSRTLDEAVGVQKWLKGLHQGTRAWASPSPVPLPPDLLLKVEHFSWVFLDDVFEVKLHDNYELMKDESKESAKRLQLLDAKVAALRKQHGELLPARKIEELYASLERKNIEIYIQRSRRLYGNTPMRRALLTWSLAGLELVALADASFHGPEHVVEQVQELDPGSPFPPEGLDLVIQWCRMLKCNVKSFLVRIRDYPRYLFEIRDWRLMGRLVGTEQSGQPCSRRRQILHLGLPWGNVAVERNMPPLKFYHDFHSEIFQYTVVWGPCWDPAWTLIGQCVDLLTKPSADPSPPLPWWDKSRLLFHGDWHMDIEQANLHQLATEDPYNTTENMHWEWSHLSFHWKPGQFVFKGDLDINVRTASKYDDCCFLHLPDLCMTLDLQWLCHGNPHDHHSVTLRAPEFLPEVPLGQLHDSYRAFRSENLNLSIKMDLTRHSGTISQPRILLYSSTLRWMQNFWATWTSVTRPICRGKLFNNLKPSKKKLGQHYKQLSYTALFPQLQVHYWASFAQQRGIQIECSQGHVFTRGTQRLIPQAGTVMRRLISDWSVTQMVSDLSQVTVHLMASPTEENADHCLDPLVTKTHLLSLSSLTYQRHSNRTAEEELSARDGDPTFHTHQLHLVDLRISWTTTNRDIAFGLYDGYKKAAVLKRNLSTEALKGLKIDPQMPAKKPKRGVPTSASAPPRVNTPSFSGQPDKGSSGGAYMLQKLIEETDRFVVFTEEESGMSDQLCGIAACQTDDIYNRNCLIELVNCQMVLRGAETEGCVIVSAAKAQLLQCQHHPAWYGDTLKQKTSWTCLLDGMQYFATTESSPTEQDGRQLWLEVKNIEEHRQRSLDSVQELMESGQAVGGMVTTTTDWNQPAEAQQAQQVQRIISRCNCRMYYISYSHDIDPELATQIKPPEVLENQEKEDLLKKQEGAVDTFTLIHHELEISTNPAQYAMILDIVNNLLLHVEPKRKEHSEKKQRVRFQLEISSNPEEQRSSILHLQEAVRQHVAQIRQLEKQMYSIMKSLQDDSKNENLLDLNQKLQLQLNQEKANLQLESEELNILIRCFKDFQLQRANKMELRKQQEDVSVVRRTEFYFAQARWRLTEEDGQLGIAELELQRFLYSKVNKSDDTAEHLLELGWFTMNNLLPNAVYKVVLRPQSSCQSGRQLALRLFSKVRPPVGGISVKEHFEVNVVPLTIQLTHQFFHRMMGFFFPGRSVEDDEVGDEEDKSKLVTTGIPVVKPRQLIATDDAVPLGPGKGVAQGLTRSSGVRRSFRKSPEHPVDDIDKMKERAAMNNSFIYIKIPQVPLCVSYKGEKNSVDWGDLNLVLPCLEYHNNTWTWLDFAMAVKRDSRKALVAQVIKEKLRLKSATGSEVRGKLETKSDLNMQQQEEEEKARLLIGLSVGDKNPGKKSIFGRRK
UniProt Q8TBB5: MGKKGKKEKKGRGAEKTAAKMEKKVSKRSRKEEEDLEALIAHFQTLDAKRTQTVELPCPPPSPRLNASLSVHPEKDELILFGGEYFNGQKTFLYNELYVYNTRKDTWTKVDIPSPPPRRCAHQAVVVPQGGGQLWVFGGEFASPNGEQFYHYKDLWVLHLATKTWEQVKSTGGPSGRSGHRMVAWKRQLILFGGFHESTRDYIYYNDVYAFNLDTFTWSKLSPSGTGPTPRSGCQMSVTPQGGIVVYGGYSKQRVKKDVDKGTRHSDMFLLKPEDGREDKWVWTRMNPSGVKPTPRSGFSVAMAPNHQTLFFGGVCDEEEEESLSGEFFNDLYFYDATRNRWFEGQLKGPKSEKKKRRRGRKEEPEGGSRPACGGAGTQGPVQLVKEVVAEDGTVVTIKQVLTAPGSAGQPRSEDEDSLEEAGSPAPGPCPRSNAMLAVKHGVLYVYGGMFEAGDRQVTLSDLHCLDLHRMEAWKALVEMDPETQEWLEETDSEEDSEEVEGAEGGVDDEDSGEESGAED
UniProt Q9NSK0: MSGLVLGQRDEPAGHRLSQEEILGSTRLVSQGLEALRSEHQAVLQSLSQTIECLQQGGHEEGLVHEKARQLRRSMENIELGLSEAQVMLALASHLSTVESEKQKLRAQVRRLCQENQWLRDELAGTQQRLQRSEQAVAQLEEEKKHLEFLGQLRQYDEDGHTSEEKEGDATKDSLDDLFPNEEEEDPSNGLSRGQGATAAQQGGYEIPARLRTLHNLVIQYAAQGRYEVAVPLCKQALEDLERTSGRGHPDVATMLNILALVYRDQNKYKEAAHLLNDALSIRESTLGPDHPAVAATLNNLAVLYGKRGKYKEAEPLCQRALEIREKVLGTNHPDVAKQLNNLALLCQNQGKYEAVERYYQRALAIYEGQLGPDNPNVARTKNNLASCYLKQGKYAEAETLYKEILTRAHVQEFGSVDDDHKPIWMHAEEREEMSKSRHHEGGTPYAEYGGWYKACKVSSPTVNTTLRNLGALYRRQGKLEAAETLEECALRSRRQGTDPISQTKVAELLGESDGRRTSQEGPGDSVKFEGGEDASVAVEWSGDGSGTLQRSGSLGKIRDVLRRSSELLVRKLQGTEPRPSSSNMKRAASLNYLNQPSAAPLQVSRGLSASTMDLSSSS
UniProt Q8IXQ5, whole entry, looked up: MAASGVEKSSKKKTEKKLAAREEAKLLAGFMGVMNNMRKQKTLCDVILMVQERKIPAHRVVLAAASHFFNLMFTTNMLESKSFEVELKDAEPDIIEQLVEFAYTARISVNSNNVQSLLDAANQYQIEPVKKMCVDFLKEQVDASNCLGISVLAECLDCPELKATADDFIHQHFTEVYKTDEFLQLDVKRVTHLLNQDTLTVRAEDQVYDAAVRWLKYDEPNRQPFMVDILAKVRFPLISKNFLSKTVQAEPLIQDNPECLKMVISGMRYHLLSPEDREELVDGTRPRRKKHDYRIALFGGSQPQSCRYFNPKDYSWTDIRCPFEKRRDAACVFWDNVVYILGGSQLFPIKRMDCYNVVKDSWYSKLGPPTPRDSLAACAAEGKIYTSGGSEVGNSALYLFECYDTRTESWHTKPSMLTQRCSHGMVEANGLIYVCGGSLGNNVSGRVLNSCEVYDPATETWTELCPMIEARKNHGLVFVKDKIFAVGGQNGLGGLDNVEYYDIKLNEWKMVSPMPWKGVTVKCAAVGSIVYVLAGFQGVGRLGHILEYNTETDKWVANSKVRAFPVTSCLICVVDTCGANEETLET
UniProt Q92845: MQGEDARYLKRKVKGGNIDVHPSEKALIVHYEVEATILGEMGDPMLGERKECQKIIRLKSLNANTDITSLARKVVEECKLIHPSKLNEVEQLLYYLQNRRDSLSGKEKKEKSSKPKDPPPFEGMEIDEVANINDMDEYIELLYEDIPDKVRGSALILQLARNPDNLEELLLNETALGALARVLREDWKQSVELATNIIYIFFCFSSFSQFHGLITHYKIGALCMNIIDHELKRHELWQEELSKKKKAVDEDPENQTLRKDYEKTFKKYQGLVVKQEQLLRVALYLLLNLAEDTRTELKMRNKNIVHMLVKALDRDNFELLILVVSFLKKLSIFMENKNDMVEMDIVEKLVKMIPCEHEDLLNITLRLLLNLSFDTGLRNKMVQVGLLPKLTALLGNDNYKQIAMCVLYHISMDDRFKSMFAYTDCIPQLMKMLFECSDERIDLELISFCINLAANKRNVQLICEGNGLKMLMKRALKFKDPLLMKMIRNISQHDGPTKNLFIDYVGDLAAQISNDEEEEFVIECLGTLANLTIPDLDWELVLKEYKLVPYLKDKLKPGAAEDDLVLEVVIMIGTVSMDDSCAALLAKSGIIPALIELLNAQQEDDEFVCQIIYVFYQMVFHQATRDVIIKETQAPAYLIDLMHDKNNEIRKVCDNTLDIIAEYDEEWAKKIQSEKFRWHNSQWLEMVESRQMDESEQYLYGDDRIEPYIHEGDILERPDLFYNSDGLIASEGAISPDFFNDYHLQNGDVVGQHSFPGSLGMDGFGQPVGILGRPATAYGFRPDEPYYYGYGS

[1] = compound: C/C(=N\NC(=O)C1=CC(=CC=C1)S(=O)(=O)N2CCOCC2)/C3=C(C=CC(=C3)Cl)O
Procedure, shortened: as §1

[2] = compound: C1=CC(=CC=C1C2=NC3=C(N2)C=C(C=C3)C(=O)N)OC4=CC=C(C=C4)Cl
Procedure, shortened: as §1

[3] = compound: C1=CC2=C(C=CC(=C2)/C=C\3/C(=O)NC(=NCC4=CC=CS4)S3)N=C1
Procedure, shortened: as §1

[4] = compound: C1=CC2=NC=CN=C2C=C1/C=C/3\C(=O)NC(=O)S3
Procedure, shortened: as §1

[5] = compound: C1=CC=C(C=C1)C2=NC(=C(N2)C3=CC=NC=C3)C4=CC(=C(C=C4)Cl)O
Procedure, shortened: as §1

[6] = compound: C1=CC=C2C(=C1)C3=NNC4=CC=CC(=C43)C2=O
Procedure, shortened: as §1

[7] = compound: C1CCN(C1)C(=O)NC2=CC=CC(=C2)NC3=NC=C(C(=N3)NCCC4=CN=CN4)Br
Procedure, shortened: as §1

[8] = compound: C1CN(CCC1(CC2=CC=C(C=C2)Cl)N)C3=NC=NC4=C3C=CN4
Procedure, shortened: as §1

IRAK-1-4 Inhibitor I = compound: C1COCCN1CCN2C3=CC=CC=C3N=C2NC(=O)C4=CC(=CC=C4)[N+](=O)[O-] [IRAK-1-4 Inhibitor I]
Procedure, shortened: as §1

Measured: log2 fold change

KRR1 (UniProt Q13601)
inactive: erlotinib 0.016 | [1] -0.232 | [2] -0.007 | [3] -0.019 | [4] 0.009 | [5] -0.01 | [6] 0.045 | [7] -0.032 | [8] 0.06 | IRAK-1-4 Inhibitor I -0.069

KIF20B isoform 2 (UniProt Q96Q89)
inactive: erlotinib -0.079 | [1] -0.135 | [2] 0.039 | [3] 0.049 | [5] 0.062 | [6] 0.024 | [7] 0.019 | [8] 0.083 | IRAK-1-4 Inhibitor I -0.028

KPNA6 (UniProt O60684)
inactive: erlotinib 0.02 | [1] 0.041 | [2] -0.004 | [3] 0.009 | [4] 0.033 | [5] -0.003 | [6] 0.056 | [7] -0.008 | [8] 0.01 | IRAK-1-4 Inhibitor I -0.026

KIAA0100 (UniProt Q14667)
inactive: erlotinib -0.069 | [1] 0.021 | [2] 0.029 | [3] -0.196 | [4] 0.013 | [5] -0.03 | [6] -0.141 | [7] 0.055 | [8] 0.236 | IRAK-1-4 Inhibitor I 0.011

LANCL1 (UniProt O43813)
inactive: erlotinib -0.021 | [1] 0.026 | [2] 0.016 | [3] 0.027 | [4] 0.013 | [5] -0.024 | [6] -0.014 | [7] -0.007 | [8] -0.009 | IRAK-1-4 Inhibitor I 0.017

KTN1 (UniProt Q86UP2)
inactive: erlotinib -0.006 | [1] 0.023 | [2] -0.002 | [3] -0.017 | [4] -0.02 | [5] -0.009 | [6] -0.087 | [7] -0.006 | [8] 0.003 | IRAK-1-4 Inhibitor I 0.01

KIF16B isoform 2 (UniProt Q96L93)
inactive: erlotinib -0.02 | [1] -0.055 | [2] 0.085 | [3] -0.006 | [5] -0.016 | [6] 0.137 | [7] 0.226 | [8] -0.164 | IRAK-1-4 Inhibitor I 0.008

KTN1 (UniProt G3V5Q0)
inactive: erlotinib 0.06 | [1] -0.16 | [2] 0.172 | [3] -0.105 | [4] -0.046 | [6] -0.182 | [7] -0.343 | [8] -0.025

KNTC1 (UniProt P50748)
inactive: erlotinib -0.004 | [1] 0.009 | [2] 0.013 | [3] 0.033 | [4] -0.006 | [5] -0.014 | [6] -0.05 | [7] -0.021 | [8] 0.027 | IRAK-1-4 Inhibitor I 0.004

KLHL12 isoform 2 (UniProt Q53G59)
inactive: erlotinib -0.051 | [1] 0.021 | [2] 0.004 | [3] 0.053 | [4] 0.165 | [5] -0.134 | [6] 0.04 | IRAK-1-4 Inhibitor I 0.046

KLHDC4 (UniProt Q8TBB5)
inactive: erlotinib -0.017 | [1] -0.159 | [2] 0.056 | [3] 0.069 | [4] -0.011 | [5] -0.013 | [6] 0.008 | [7] 0.028 | [8] -0.023 | IRAK-1-4 Inhibitor I -0.03

KRTCAP2 isoform 2 (UniProt Q8N6L1)
inactive: erlotinib 0.034 | [1] -0.032 | [2] -0.091 | [3] -0.095 | [5] -0.022 | [6] -0.03 | [7] 0.007 | [8] 0.041 | IRAK-1-4 Inhibitor I 0.095

KDM4B (UniProt O94953)
inactive: erlotinib -0.013 | [1] -0.213 | [2] 0.057 | [3] -0.041 | [5] -0.002 | [6] 0.085 | [7] -0.126 | [8] -0.018 | IRAK-1-4 Inhibitor I 0.017

KIF3C (UniProt O14782)
inactive: erlotinib 0.389 | [1] 0.05 | [2] -0.082 | [3] -0.116 | [5] 0.025 | [6] -0.117 | [7] 0.158 | [8] 0.146 | IRAK-1-4 Inhibitor I -0.023

KIF26A (UniProt Q9ULI4)
inactive: erlotinib 0.117 | [1] -0.053 | [2] -0.089 | [3] 0.012 | [4] -0.022 | [5] -0.019 | [6] 0.159 | [7] 0.108 | [8] 0.249 | IRAK-1-4 Inhibitor I 0.093

KIAA1586 (UniProt Q9HCI6)
inactive: erlotinib 0.021 | [1] -0.249 | [2] -0.086 | [3] 0.071 | [4] -0.061 | [5] -0.054 | [6] 0.056 | IRAK-1-4 Inhibitor I 0.088

KLC4 isoform 3 (UniProt Q9NSK0)
inactive: erlotinib 0 | [1] -0.017 | [2] 0.05 | [3] 0 | [4] 0 | [5] 0.018 | [6] -0.029 | [7] -0.056 | [8] 0.007 | IRAK-1-4 Inhibitor I -0.021

KLF16 (UniProt Q9BXK1)
inactive: erlotinib 0.134 | [1] -0.303 | [2] -0.078 | [3] -0.08 | [4] 0.019 | [5] 0.03 | [6] -0.033 | [7] 0.216 | [8] -0.081 | IRAK-1-4 Inhibitor I 0.06

KLHL7 (UniProt Q8IXQ5)
inactive: erlotinib -0.095 | [1] 0.062 | [2] 0.024 | [3] -0.162 | [5] 0.016 | [6] 0.29 | [7] -0.082 | [8] -0.012 | IRAK-1-4 Inhibitor I -0.05

KMT2D isoform 3 (UniProt O14686)
inactive: erlotinib -0.004 | [1] -0.022 | [2] 0.031 | [3] -0.001 | [4] -0.023 | [5] -0.001 | [6] -0.006 | [7] -0.004 | [8] -0.016 | IRAK-1-4 Inhibitor I -0.006

KIF1C (UniProt O43896)
inactive: erlotinib 0.055 | [1] 0.056 | [2] 0.148 | [3] -0.021 | [4] -0.023 | [5] 0.001 | [6] -0.223 | [7] -0.007 | [8] 0.238 | IRAK-1-4 Inhibitor I 0.087

KRAS (UniProt P01116)
inactive: erlotinib -0.112 | [1] 0.033 | [2] 0.069 | [3] -0.052 | [5] -0.036 | [6] -0.041 | [7] -0.021 | [8] -0.008 | IRAK-1-4 Inhibitor I 0.007

KLHL22 (UniProt Q53GT1)
inactive: erlotinib 0.023 | [1] 0.12 | [2] -0.006 | [3] -0.123 | [5] -0.027 | [6] -0.031 | [7] 0.076 | [8] -0.034 | IRAK-1-4 Inhibitor I -0.032

KPNB1 (UniProt Q14974)
inactive: erlotinib 0.025 | [1] -0.022 | [2] 0.008 | [3] -0.001 | [4] 0.008 | [5] -0.007 | [6] -0.012 | [7] -0.005 | [8] 0.029 | IRAK-1-4 Inhibitor I 0.008

KIDINS220 isoform 4 (UniProt Q9ULH0)
inactive: erlotinib -0.019 | [1] 0.031 | [2] -0.013 | [3] 0.02 | [4] -0.01 | [5] -0.033 | [6] -0.055 | [7] -0.035 | [8] 0.061 | IRAK-1-4 Inhibitor I 0.018

KIF3A (UniProt Q9Y496)
inactive: erlotinib -0.114 | [1] -0.008 | [2] -0.048 | [3] 0.024 | [4] -0.026 | [5] -0.03 | [6] -0.057 | [7] 0.001 | [8] 0.029 | IRAK-1-4 Inhibitor I -0.019

Quoted at random: two entries already listed.
KRAS (UniProt P01116)
inactive: erlotinib -0.112 | [1] 0.033 | [2] 0.069 | [3] -0.052 | [5] -0.036 | [6] -0.041 | [7] -0.021 | [8] -0.008 | IRAK-1-4 Inhibitor I 0.007

KLHL22 (UniProt Q53GT1)
inactive: erlotinib 0.023 | [1] 0.12 | [2] -0.006 | [3] -0.123 | [5] -0.027 | [6] -0.031 | [7] 0.076 | [8] -0.034 | IRAK-1-4 Inhibitor I -0.032

Additional records.

KDM5C (UniProt P41229)
inactive: erlotinib 0.052 | [1] 0.017 | [2] 0.022 | [3] -0.059 | [4] -0.009 | [5] -0.041 | [6] -0.031 | [7] -0.053 | [8] -0.002 | IRAK-1-4 Inhibitor I 0.01

LARS (UniProt Q9P2J5)
inactive: erlotinib 0.021 | [1] 0.05 | [2] -0.024 | [3] 0.024 | [4] 0.013 | [5] 0.016 | [6] -0.026 | [7] -0.012 | [8] -0.002 | IRAK-1-4 Inhibitor I -0.032

KIF23 isoform 2 (UniProt Q02241)
inactive: erlotinib -0.003 | [1] -0.003 | [2] 0.073 | [3] -0.013 | [4] -0.007 | [5] 0.005 | [6] -0.072 | [7] -0.007 | [8] -0.018 | IRAK-1-4 Inhibitor I 0.035

KIFAP3 (UniProt Q92845)
inactive: [4] -0.003 | [5] 0.029 | [7] -0.118 | [8] 0.179 | IRAK-1-4 Inhibitor I 0.023

KRT13 (UniProt K7EMD9)
inactive: erlotinib 0.225 | [2] -0.083 | [4] 0.26 | [5] 0.112 | IRAK-1-4 Inhibitor I 0.156

KIF21A (UniProt H0YI78)
inactive: erlotinib -0.064 | [2] 0.088 | [4] -0.015
